The values that follow come from paper PMC10674987, “Sweet Cherry Extract as Permeation Enhancer of Tyrosine Kinase Inhibitors: A Promising Prospective for Future Oral Anticancer Therapies” (Pharmaceuticals, 2023).

The conditions of data set [1]: known from literature; cited from earlier work.
Another data set has as its system Caco-2 cells. In words: Cell viability assay (MTT) on Caco-2 cells. Format: cell-based, human. To be noted: 2 h. The procedure: Cells were sub-cultured using a 1× trypsin/EDTA solution and then passed every 3–4 days at appropriate ratios (typically 1:3, 1:6, 1:12). […] After 2 h of treatment, solutions were aspirated from the wells, and the cells were washed with pre-warmed PBS. […] To supplement MTT data and support the hypothesis of no toxic effect due to treatment with SCE, cytotoxicity assays were carried out by careful examination of cells under a microscope, as indicated in USP 28 (United States Pharmacopeia edition 2005) as an alternative method. […] Furthermore, it was mandatory to identify the most suitable drug concentration that would avoid cytotoxic effects on Caco-2 cells (a condition that may bias the permeability study) and that would allow the optimal chromatographic response when analyzing the samples obtained. Therefore, cells were exposed to increasing concentrations of drugs (1–10–100 µM) for 2 h. Concentrations were chosen to identify the best one to use for permeability studies that may ensure an adequate amount of compound to be quantified by the HPLC-UV/MS method, whilst not causing cytotoxic effects that would alter the experiment. […] Cell viability was assessed as above described.

The subject of another data set is Caco-2 monolayer. Kind of data set: Bidirectional permeability in Caco-2 cells in absence and presence of SCE. It is filed as in vitro ADME, human. The conditions noted are these: +SCE 1 mg/mL vs Free. Here is the method:
(§1) Caco-2 cells were seeded at a density of 2 × 10^4 on Transwell supports (0.4 µm pore polycarbonate membrane, 6.5 mm) and incubated overnight in a controlled atmosphere of 37 °C and 5% of CO2. The following day, the medium was changed to remove floating cells and fresh pre-warmed DMEM 20% was added (300 µL in the apical compartment and 1200 µL in the basal one). Cells were cultured for approximately 18–21 days in order to ensure that the cellular monolayers differentiated and many transport proteins and brush border hydrolases were expressed. Media were changed every 2–3 days.
(§2) For permeability studies, stock solutions of compounds were prepared by solubilizing 1.0 mg of accurately weighed powder with dimethyl sulfoxide (DMSO) and conserved at −20 °C. Immediately prior to the experiments, working solutions (WS) were prepared by diluting the stock solutions with pre-warmed HBSS to the final concentration of 10 µM. The final concentration of DMSO used never exceeded 0.1% v/v. The assays were performed in both the absorptive (from apical-to-basolateral compartment (A-B)) and the secretory direction (from basolateral-to-apical compartment (B-A)), both in the absence (Free) and presence of sweet cherry extract (+SCE [1 mg/mL]) diluted in HBSS. The final volumes used for the experiment were 300 µL in the apical compartment and 1200 µL in the basolateral one. Plates were incubated at 37 °C and maintained under gentle shaking (500 rpm) to reduce the effect of the unstirred water layer. At selected time points (T0–0.25–0.5–1–2 h-TEND for the A-B studies; T0–2 h–TEND for the B-A studies), samples (200 µL) were collected from the receiving compartments (from the basolateral compartment for the A-B assay; from the apical one for the B-A study) and replaced with the same volume of HBSS. The HPLC-UV/MS method was developed to quantify the amount of drug transferred across the cellular monolayer, and permeability (Papp, 10^−6 cm/s) and efflux ratio (ER) were calculated according to the following equations:Papp = (dQ/dt) × 1/(A × C0)(5) where dQ/dt is the steady-state flux (µmol s^−1), A is the area of the filter (cm^2), and C0 is the initial concentration in the donor compartment (µM). ER = (Papp B-A)/(Papp A-B)(6)
(§3) Chromatographic analyses were carried out using an Agilent 1260 Infinity HPLC-DAD system connected to an Agilent MSD 6130 system (Agilent Technologies, Palo Alto, CA, USA). At room temperature, a Kinetex C18-100 Å column (150 mm 4.6 mm, purchased from Phenomenex, Torrance, CA, USA) with a 5 µm particle size and gradient elution with a binary solution (eluent A: H2O, eluent B: ACN, both acidified with 0.1% v/v formic acid) was for the chromatographic separation. Analyses started with 5% B (from t = 0 to t = 1 min), then increased to 95% (from t = 1 to t = 10 min), then maintained at 95% (from t = 10 to t = 15 min), and finally returned to […] in 1.0 min. The volume injected was 10 µL, and the flow rate 600 µL/min. UV detection was monitored at 254 nm, and spectra were collected in both the positive and negative modes within the scan range of m/z 100–1500.
A general note: Caco-2 monolayers are a common model of the intestinal barrier.

Test in data set [2]: as above
Format: in vitro ADME, human. The conditions noted are these: human, 10 µM compound; for Papp A→B at 2 h, 10 µM: apical to basolateral; for Papp B→A at 2 h, 10 µM: basolateral to apical. Here is the method: as §1, §2, §3

As to `CC(C)NCC(O)COc1ccc(CC(N)=O)cc1` (stereo not drawn) [Atenolol, atenolol, reference compound], in data set [1], the Papp entry is “less than 1 × 10^−6 cm/s”. In the data set on Caco-2 cells (1 µM, vs untreated control), the Cell viability entry is listed as “no significant signs of toxicity”. Further, the Cell viability result with Caco-2 cells (100 µM) is on record as “high percentages of viable cells”. For the same molecule, in the data set with Caco-2 monolayer, the “Change of Papp A-B in presence of SCE vs Free” value is “about 30 fold” and the “Change of Papp B-A in presence of SCE vs Free” value is on record as “seven-fold”. Besides, in data set [2] (Caco-2, +SCE [1 mg/mL]), the Papp A→B at 2 h, 10 µM came out at 9.11 ± 0.572 ×10⁻⁶ cm/s and the Papp B→A at 2 h, 10 µM stood at 7.27 ± 0.932 ×10⁻⁶ cm/s. In addition, in data set [2] (Caco-2, Free), the apical-to-basolateral permeability (Papp A→B) at 2 h, 10 µM was 0.284 ± 0.011 ×10⁻⁶ cm/s and the Papp B→A at 2 h, 10 µM is 1.02 ± 0.104 ×10⁻⁶ cm/s.

As usually defined, the Papp A→B is how fast a substance crosses the layer from the apical side. The term Papp B→A denotes how fast a substance crosses the layer from the basolateral side.
